The text below walks through data of paper PMC6177441.

Protein sequences, listed by entry. Tags and fused reporters are not part of them.
UniProt P23242: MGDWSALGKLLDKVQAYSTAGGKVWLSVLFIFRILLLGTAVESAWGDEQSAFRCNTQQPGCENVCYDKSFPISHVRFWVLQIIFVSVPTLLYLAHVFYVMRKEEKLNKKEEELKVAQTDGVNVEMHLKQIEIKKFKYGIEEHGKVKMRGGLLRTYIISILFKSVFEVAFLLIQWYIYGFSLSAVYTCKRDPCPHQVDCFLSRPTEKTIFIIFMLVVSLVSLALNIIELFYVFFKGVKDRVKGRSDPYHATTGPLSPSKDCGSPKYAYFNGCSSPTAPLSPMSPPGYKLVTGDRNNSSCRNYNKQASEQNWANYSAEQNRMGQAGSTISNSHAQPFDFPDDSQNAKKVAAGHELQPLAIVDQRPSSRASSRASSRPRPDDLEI

No constants are given. Whether binding was seen depends on the method and setting. In cells and extracts the contact can be indirect. Some results given as binding are weak or reduced against the parent protein; the word gives no strength.

Test [1] has as its target T1, Cx43-interacting protein of 85 kDa (CIP85) (mouse (endogenous in neonatal mouse ventricular myocytes)) (UniProt Q8VCZ6).
T1 sequence: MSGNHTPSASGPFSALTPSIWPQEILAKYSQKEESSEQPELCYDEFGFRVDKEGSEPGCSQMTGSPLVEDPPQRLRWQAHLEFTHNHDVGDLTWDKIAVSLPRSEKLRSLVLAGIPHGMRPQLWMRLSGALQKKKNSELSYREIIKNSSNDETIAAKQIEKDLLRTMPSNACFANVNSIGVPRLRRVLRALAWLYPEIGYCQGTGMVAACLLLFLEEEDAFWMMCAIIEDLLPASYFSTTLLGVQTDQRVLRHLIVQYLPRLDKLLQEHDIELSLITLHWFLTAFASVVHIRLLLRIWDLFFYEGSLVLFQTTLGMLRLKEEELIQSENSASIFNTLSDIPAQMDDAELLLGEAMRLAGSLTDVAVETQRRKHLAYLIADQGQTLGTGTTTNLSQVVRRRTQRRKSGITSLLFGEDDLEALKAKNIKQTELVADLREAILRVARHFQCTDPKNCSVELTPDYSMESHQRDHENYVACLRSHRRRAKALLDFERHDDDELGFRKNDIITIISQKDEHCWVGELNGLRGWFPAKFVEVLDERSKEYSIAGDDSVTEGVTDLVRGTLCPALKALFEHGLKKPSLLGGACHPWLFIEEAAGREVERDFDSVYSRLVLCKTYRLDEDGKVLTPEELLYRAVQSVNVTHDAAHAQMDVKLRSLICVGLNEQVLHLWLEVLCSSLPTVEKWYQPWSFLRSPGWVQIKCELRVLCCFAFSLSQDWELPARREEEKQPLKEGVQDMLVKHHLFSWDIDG
Kind of test: co-IP; endogenous proteins in lysate of cultured NMVMs (RIPA lysis buffer: 50 mM Tris pH 7.4, 150 mM NaCl, 1% Triton X-100, 1% sodium deoxycholate, 0.1% SDS), 4 °C, precipitated with anti-Cx43 or anti-CIP85 antibody, protein A/G plus-agarose beads, immunoblot; also in NMVMs transfected with pFD or pFD-Mut (less Cx43 co-precipitated with pFD).

Test [2] deals with connexin43 (Cx43) (mouse (endogenous in neonatal mouse ventricular myocytes)) (UniProt P23242). The description is as above.

On to “connexin43 (Cx43) (from UniProt P23242 1-382)”, for which the binding result in test [1] is listed as “binds”.

B1: Cx43-interacting protein of 85 kDa (CIP85) (protein, UniProt Q8VCZ6 1-750)
chain: MSGNHTPSASGPFSALTPSIWPQEILAKYSQKEESSEQPELCYDEFGFRVDKEGSEPGCSQMTGSPLVEDPPQRLRWQAHLEFTHNHDVGDLTWDKIAVSLPRSEKLRSLVLAGIPHGMRPQLWMRLSGALQKKKNSELSYREIIKNSSNDETIAAKQIEKDLLRTMPSNACFANVNSIGVPRLRRVLRALAWLYPEIGYCQGTGMVAACLLLFLEEEDAFWMMCAIIEDLLPASYFSTTLLGVQTDQRVLRHLIVQYLPRLDKLLQEHDIELSLITLHWFLTAFASVVHIRLLLRIWDLFFYEGSLVLFQTTLGMLRLKEEELIQSENSASIFNTLSDIPAQMDDAELLLGEAMRLAGSLTDVAVETQRRKHLAYLIADQGQTLGTGTTTNLSQVVRRRTQRRKSGITSLLFGEDDLEALKAKNIKQTELVADLREAILRVARHFQCTDPKNCSVELTPDYSMESHQRDHENYVACLRSHRRRAKALLDFERHDDDELGFRKNDIITIISQKDEHCWVGELNGLRGWFPAKFVEVLDERSKEYSIAGDDSVTEGVTDLVRGTLCPALKALFEHGLKKPSLLGGACHPWLFIEEAAGREVERDFDSVYSRLVLCKTYRLDEDGKVLTPEELLYRAVQSVNVTHDAAHAQMDVKLRSLICVGLNEQVLHLWLEVLCSSLPTVEKWYQPWSFLRSPGWVQIKCELRVLCCFAFSLSQDWELPARREEEKQPLKEGVQDMLVKHHLFSWDIDG
Consider B1, for which, in test [2], the binding result was “binds”.
